Measurements from PubChem BioAssay AID282 (DTP/NCI, 2004).
The list is a part of this screen's results and no random one: it is rich in T/C values a quarter to a half above the control, in often repeated tests (any T/C) and in doses without a T/C. Further doses and runs are listed elsewhere. T/C gives the treated animals as a percentage of the vehicle group. Some entries give survivors of the animals treated and no T/C: the source holds a T/C of zero for them, seemingly a mark for toxic or unscored doses. Some survivor counts are full or nearly so, which does not show that the dose was tolerated: the source hardly ever lists a survival T/C far under the control, and the zero likely stands for such cases as well. Counts of survivors are from the toxicity check (mostly the fifth day) where no day follows; animals may have died later. Schedule codes are those of the source, taken here to give the interval after Q, in days (D) or hours (H), and the number of doses after X. Some schedule codes hold Z or #, which are not explained here. For survival time, this PubChem deposit counts one and a half times the control or more as active, and values a quarter to a half above the control carry no call in these data; other NCI protocols may use other cut-offs. Some entries hold several experiments; their values stand side by side, smallest first. Some T/C values are followed by the survivors on the day toxicity was checked, most often the fifth; where none is given, no animal had died by that day.

Tested on: BDF1 mice, L1210 terephthalanilide-resistant leukemia ip, survival T/C
Assay: NCI In Vivo Anticancer Drug Screen. Data for tumor model L1210 Leukemia resistant to A Terephthalanilide; NSC 38280 (intraperitoneal) in B6D2F1 (BDF1) mice
Settings: T/C endpoint: mean survival time, higher T/C = longer survival
Experimental: The antitumor activity of compounds was measured in mice bearing transplantable tumors. Survival or tumor size were measured and the results are expressed as the measurement made in the treated group (T) divided by the measurement made in the vehicle treated control group (C). The tumor model used in this assay is L1210 Leukemia resistant to A Terephthalanilide; NSC 38280 (intraperitoneal) in B6D2F1 (BDF1) mice

[1] = dose: 7.5 mg/kg/injection, schedule: Q01DX Z (ip), vehicle: carboxymethylcellulose (CMC)
[2] = dose: 10.0 mg/kg/injection, schedule: Q01DX Z (ip), vehicle: carboxymethylcellulose (CMC)
[3] = dose: 40.0 mg/kg/injection, schedule: Q01DX010 (ip), vehicle: saline
[4] = dose: 80.0 mg/kg/injection, schedule: Q01DX010 (ip), vehicle: saline
[5] = dose: 160.0 mg/kg/injection, schedule: Q01DX010 (ip), vehicle: saline

For `S=P(N1CCOCC1)(N1CC1)N1CC1`, the T/C [1] was 128 and 141 % of control, the T/C [2] was 136 % of control and the T/C (dose: 20.0 mg/kg/injection, schedule: Q01DX010 (ip), vehicle: saline) was 135 % of control. The survivor count (dose: 80.0 mg/kg/injection, schedule: Q01DX Z (ip), vehicle: carboxymethylcellulose (CMC)) was 6 of 6.

`OCC1OC(n2cnc3c(=S)nc[nH]c32)C(O)C1O` (configuration not stated) was tested, and the T/C [3] was 130 % of control, the T/C [4] was 133 and 147 % of control and the T/C [5] was 133 % of control.

For `O=c1[nH]c(=O)n(C2CC(O)C(CO)O2)cc1F` (configuration not stated), the T/C [3] was 129 % of control, the survivor count [4] was 6 of 6 and the survivor count [5] was 6 of 6. For the same compound, the T/C (dose: 200.0 mg/kg/injection, schedule: Q01DX Z (ip), vehicle: saline) was 135 % of control and the T/C (dose: 250.0 mg/kg/injection, schedule: Q01DX Z (ip), vehicle: saline) was 129 % of control.

For `CN=C(NC)c1ccc(NC(=O)Nc2ccc(NC(=O)Nc3ccc(C(=NC)NC)cc3)cc2)cc1`, the survivor count (dose: 30.0 mg/kg/injection, schedule: Q01DX010 (ip), vehicle: saline) was 6 of 6 and the survivor count (dose: 45.0 mg/kg/injection, schedule: Q01DX010 (ip), vehicle: saline) was 4 of 6.

In the case of `Nc1nc(=S)c2ncn(C3OC(CO)C(O)C3O)c2[nH]1` (configuration not stated), the T/C (dose: 0.2 mg/kg/injection, schedule: Q01DX Z (ip), vehicle: carboxymethylcellulose (CMC)) was 135 % of control, the T/C (dose: 0.45 mg/kg/injection, schedule: Q01DX Z (ip), vehicle: carboxymethylcellulose (CMC)) was 129 % of control and the T/C (dose: 0.5 mg/kg/injection, schedule: Q01DX010 (ip), vehicle: saline) was 125 % of control. The T/C (dose: 0.62 mg/kg/injection, schedule: Q01DX Z (ip), vehicle: carboxymethylcellulose (CMC)) was 143 % of control, the T/C (dose: 1.0 mg/kg/injection, schedule: Q01DX010 (ip), vehicle: saline) was 136 % of control [5 of 6 alive] and the T/C [1] was 139 % of control. The T/C [2] was 138 % of control and the survivor count (dose: 16.0 mg/kg/injection, schedule: Q01DX010 (ip), vehicle: saline) was 6 of 6.
